# Laboratory results as given in publication PMC5007378.
# Chains of the proteins cited; added tags and fusions are not shown.
# UniProt P11388: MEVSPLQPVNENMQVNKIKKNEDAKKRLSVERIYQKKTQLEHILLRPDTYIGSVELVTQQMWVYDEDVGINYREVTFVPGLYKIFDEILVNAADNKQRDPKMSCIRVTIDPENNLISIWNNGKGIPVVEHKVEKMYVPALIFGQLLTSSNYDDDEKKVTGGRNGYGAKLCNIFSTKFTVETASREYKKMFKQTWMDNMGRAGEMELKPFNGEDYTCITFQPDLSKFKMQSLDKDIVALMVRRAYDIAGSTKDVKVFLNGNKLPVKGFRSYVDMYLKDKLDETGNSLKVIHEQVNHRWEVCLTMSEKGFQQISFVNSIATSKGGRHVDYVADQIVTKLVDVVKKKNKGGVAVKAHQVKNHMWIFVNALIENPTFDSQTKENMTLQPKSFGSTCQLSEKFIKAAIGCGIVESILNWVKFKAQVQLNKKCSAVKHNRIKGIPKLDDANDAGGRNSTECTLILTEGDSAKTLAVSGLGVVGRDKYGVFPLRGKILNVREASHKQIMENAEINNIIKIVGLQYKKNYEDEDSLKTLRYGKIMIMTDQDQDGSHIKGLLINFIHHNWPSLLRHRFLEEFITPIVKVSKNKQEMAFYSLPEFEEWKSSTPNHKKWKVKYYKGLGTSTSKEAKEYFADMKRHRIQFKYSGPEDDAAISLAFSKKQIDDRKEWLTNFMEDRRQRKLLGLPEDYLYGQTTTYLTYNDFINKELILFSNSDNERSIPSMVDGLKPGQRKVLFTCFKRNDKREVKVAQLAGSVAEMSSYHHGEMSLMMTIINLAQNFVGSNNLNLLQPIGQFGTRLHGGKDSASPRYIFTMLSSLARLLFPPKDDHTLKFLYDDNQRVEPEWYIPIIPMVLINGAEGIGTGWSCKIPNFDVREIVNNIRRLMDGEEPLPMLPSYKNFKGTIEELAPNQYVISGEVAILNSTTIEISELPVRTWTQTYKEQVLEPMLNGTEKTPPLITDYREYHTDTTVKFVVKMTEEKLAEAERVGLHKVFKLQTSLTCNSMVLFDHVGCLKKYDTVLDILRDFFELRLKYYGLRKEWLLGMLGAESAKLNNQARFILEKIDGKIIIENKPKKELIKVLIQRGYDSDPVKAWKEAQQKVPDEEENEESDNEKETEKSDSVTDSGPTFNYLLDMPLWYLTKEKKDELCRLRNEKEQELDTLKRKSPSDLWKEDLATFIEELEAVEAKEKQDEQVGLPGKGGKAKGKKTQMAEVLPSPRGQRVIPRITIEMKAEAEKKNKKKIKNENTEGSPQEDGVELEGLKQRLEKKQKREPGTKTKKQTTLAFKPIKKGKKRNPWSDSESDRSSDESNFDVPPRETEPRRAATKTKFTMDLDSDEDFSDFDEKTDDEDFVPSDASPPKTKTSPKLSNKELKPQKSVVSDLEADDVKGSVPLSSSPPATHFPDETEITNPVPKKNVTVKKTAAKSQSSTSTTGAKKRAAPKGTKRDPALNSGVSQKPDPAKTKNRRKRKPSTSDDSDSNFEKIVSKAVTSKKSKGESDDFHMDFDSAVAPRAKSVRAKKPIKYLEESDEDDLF
# UniProt Q80XJ2: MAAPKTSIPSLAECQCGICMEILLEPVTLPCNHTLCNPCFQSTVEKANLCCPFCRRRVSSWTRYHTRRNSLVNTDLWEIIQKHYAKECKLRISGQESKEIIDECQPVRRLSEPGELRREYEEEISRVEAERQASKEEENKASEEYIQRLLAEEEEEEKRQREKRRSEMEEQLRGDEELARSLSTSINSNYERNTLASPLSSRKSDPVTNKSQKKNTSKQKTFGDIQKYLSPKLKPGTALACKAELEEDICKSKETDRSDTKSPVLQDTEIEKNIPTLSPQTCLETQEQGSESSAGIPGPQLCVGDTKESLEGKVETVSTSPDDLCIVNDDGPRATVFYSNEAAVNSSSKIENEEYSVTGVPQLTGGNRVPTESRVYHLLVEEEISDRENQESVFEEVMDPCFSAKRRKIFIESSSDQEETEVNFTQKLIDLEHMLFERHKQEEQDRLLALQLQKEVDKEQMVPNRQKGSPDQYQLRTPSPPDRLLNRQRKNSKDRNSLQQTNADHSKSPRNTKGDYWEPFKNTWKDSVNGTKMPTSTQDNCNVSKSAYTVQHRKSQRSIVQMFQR
# UniProt Q8IYW5: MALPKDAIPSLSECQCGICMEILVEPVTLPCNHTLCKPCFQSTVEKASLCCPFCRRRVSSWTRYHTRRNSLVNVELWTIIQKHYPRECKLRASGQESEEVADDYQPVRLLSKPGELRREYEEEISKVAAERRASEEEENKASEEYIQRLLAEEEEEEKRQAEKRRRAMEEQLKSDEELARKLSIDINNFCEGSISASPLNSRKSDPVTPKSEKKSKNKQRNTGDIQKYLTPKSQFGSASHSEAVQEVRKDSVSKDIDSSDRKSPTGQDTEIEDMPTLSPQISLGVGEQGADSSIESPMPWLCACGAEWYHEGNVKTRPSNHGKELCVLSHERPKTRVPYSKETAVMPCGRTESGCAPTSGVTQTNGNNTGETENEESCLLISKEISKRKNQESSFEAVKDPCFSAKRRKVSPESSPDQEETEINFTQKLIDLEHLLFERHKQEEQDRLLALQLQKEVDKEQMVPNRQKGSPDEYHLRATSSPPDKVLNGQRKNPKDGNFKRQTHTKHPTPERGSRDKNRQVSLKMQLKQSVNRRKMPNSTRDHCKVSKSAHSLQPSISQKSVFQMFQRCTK
# These are yes or no findings as the source states them, for the method shown. Binding seen in cells or lysates may run through a third protein. Some binding calls cover weakened binding; strength is not graded here.
# Assays:
# Flag-tagged TOP2α = Flag-tagged TOP2α (UniProt P11388); test: co-IP; HEK293T co-transfected with Flag- and HA-tagged proteins, harvested 48 h later; lysis in 50 mM Tris-HCl pH 7.5, 150 mM NaCl, 0.5% Triton-X100; IP with anti-Flag (Fig. 7a,b: anti-Flag and anti-HA), immunoblot
# [1] = target: endogenous TOP2α (HEK293T cells) (human (endogenous in HEK293T)) (UniProt P11388); test: co-IP; endogenous proteins; TOP2α, RNF168 and control IgG immunoprecipitates from HEK293T cells, immunoblot
binding (Flag-tagged TOP2α),binding [1],Substance
binds,,HA-tagged RNF168 (from UniProt Q80XJ2 1-565)
,binds,endogenous RNF168 (HEK293T cells) (from UniProt Q8IYW5 1-571)
